No constants are given. Whether binding was seen depends on the method and setting. Binding seen in cells or lysates may run through a third protein. Some results given as binding are weak or reduced against the parent protein; the word gives no strength. For part of these data: Where a sequence is shown, tags or fusion partners need not be part of it. Values belong to the binder of their own block, whether it stands above or below them.
Experiments:
[1] = target: TRF2, endogenous (U2OS) (human (endogenous in U2OS)) (UniProt Q15554); assay: co-IP; endogenous proteins; lysates of U2OS cells synchronized by double thymidine block and harvested at 3 h time points; anti-TRF2 antibody overnight, protein G and protein A sepharose beads 4 h at 4 °C
FLAG-hTRF1 (human) = FLAG-hTRF1 (human) (UniProt P54274); assay: co-IP; 293T cells co-transfected with MCPH1 and FLAG-hTRF1; BC300 buffer; beads for this pair not told
FLAG-mTRF2 (mouse) = FLAG-mTRF2 (mouse) (UniProt O35144); assay: co-IP; Myc-mMCPH1 and FLAG-mTRF2; cells and beads not told

Amino acid sequences for entries named in this document (tags omitted).
UniProt Q15554: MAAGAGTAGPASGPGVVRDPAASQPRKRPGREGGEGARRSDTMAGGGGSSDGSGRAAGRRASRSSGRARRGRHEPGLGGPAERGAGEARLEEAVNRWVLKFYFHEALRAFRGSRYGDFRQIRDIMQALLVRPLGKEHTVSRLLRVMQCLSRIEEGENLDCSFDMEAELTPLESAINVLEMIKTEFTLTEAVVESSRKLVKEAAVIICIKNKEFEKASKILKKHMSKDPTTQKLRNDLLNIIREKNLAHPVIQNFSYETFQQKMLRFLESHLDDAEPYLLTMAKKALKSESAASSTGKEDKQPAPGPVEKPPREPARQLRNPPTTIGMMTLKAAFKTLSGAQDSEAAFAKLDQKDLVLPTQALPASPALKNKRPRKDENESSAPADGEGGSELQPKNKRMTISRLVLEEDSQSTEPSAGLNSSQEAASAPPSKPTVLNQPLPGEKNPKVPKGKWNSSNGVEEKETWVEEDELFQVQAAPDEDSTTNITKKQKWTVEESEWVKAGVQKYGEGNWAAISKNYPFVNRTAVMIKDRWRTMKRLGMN
UniProt P54274: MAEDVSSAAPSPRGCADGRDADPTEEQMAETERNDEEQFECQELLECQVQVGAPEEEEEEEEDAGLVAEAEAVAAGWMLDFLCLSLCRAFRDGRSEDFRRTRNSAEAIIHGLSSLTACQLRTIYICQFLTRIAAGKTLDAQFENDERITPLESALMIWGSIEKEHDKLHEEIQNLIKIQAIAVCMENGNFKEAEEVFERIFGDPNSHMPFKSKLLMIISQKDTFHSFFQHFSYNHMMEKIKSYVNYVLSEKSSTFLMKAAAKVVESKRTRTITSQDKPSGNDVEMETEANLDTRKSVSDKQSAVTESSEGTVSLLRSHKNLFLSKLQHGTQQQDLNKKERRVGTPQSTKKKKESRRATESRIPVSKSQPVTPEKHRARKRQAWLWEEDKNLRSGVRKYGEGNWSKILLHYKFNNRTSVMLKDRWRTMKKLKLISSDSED
UniProt O35144: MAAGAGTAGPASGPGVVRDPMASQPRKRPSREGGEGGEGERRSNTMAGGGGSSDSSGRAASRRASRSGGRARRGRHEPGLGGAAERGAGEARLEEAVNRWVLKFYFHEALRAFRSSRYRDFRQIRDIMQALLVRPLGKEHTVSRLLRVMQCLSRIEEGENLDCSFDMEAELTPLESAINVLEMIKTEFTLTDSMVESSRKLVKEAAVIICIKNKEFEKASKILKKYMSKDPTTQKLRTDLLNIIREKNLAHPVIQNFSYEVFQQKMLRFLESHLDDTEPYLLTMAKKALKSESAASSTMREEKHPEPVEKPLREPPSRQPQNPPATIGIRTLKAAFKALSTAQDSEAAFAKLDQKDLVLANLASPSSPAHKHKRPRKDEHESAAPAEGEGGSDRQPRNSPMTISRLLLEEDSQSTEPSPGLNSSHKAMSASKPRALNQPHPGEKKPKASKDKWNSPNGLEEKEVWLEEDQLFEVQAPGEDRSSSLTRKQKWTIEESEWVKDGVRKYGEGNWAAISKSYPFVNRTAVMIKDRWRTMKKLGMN

- binding [1]: binds
B1: MCPH1, endogenous (U2OS) (protein, UniProt Q8NEM0 1-835)
chain: MAAPILKDVVAYVEVWSSNGTENYSKTFTTQLVDMGAKVSKTFNKQVTHVIFKDGYQSTWDKAQKRGVKLVSVLWVEKCRTAGAHIDESLFPAANMNEHLSSLIKKKRKCMQPKDFNFKTPENDKRFQKKFEKMAKELQRQKTNLDDDVPILLFESNGSLIYTPTIEINSRHHSAMEKRLQEMKEKRENLSPTSSQMIQQSHDNPSNSLCEAPLNISRDTLCSDEYFAGGLHSSFDDLCGNSGCGNQERKLEGSINDIKSDVCISSLVLKANNIHSSPSFTHLDKSSPQKFLSNLSKEEINLQRNIAGKVVTPDQKQAAGMSQETFEEKYRLSPTLSSTKGHLLIHSRPRSSSVKRKRVSHGSHSPPKEKCKRKRSTRRSIMPRLQLCRSEDRLQHVAGPALEALSCGESSYDDYFSPDNLKERYSENLPPESQLPSSPAQLSCRSLSKKERTSIFEMSDFSCVGKKTRTVDITNFTAKTISSPRKTGNGEGRATSSCVTSAPEEALRCCRQAGKEDACPEGNGFSYTIEDPALPKGHDDDLTPLEGSLEEMKEAVGLKSTQNKGTTSKISNSSEGEAQSEHEPCFIVDCNMETSTEEKENLPGGYSGSVKNRPTRHDVLDDSCDGFKDLIKPHEELKKSGRGKKPTRTLVMTSMPSEKQNVVIQVVDKLKGFSIAPDVCETTTHVLSGKPLRTLNVLLGIARGCWVLSYDWVLWSLELGHWISEEPFELSHHFPAAPLCRSECHLSAGPYRGTLFADQPAMFVSPASSPPVAKLCELVHLCGGRVSQVPRQASIVIGPYSGKKKATVKYLSEKWVLDSITQHKVCAPENYLLSQ

- binding (FLAG-hTRF1 (human)): no binding
B2: MCPH1 (human), as co-expressed with FLAG-hTRF1 (protein, UniProt Q8NEM0 1-835)
chain: MAAPILKDVVAYVEVWSSNGTENYSKTFTTQLVDMGAKVSKTFNKQVTHVIFKDGYQSTWDKAQKRGVKLVSVLWVEKCRTAGAHIDESLFPAANMNEHLSSLIKKKRKCMQPKDFNFKTPENDKRFQKKFEKMAKELQRQKTNLDDDVPILLFESNGSLIYTPTIEINSRHHSAMEKRLQEMKEKRENLSPTSSQMIQQSHDNPSNSLCEAPLNISRDTLCSDEYFAGGLHSSFDDLCGNSGCGNQERKLEGSINDIKSDVCISSLVLKANNIHSSPSFTHLDKSSPQKFLSNLSKEEINLQRNIAGKVVTPDQKQAAGMSQETFEEKYRLSPTLSSTKGHLLIHSRPRSSSVKRKRVSHGSHSPPKEKCKRKRSTRRSIMPRLQLCRSEDRLQHVAGPALEALSCGESSYDDYFSPDNLKERYSENLPPESQLPSSPAQLSCRSLSKKERTSIFEMSDFSCVGKKTRTVDITNFTAKTISSPRKTGNGEGRATSSCVTSAPEEALRCCRQAGKEDACPEGNGFSYTIEDPALPKGHDDDLTPLEGSLEEMKEAVGLKSTQNKGTTSKISNSSEGEAQSEHEPCFIVDCNMETSTEEKENLPGGYSGSVKNRPTRHDVLDDSCDGFKDLIKPHEELKKSGRGKKPTRTLVMTSMPSEKQNVVIQVVDKLKGFSIAPDVCETTTHVLSGKPLRTLNVLLGIARGCWVLSYDWVLWSLELGHWISEEPFELSHHFPAAPLCRSECHLSAGPYRGTLFADQPAMFVSPASSPPVAKLCELVHLCGGRVSQVPRQASIVIGPYSGKKKATVKYLSEKWVLDSITQHKVCAPENYLLSQ

- binding (FLAG-mTRF2 (mouse)): no binding
B3: Myc-mMCPH1 (protein, UniProt Q7TT79 1-822)
chain: MEASGGVGGAFLKDVVAYVEVWSSKGTENYSRTFAKQLEDMGATVSKTLNKQVTHVIFKDGYQSTWDKAQKTGAKLVSVLWVEKCRMAGALVDESLFPAVNTDEHLPNLSRKKHKCMQPKDFILKTPENDKRLQKKFEKMAEELQRQKAALDDDVPVLLFESPRSLVYSSPVNVMKRRLQDMKEKRENLSPTSSQMLEQSQQNPCVSLFETSLNISHQPLSSDESFASGSHSSFGDSCGDQERKLGRSANEMTTVTCPSSPVLRASSFYGSASPNHLRQPRPQKAPDSPSKESINCQKDATGAVADSERKQAAGVSQGVPDEKLCLSPTMSIIEEHQVRLGPKNSSAKRKRAADLGSSPKGKLKKRYKRKSALAIQLFKSDQSPPSTIRLIPGTPDVEASSYEDYFSPDNLKERNSERLPPEAQQLASPSLFHCRGLSKWERRNMLEMCDFTCIGEKHRSISSISDLISKSASSLEKPVKEEVNTASTCLLLVETSANDSPGLCSQPGPQLRDDTGPEGSSHPDTLSSSAHHITPLKGNSTETRDPGDGKGSPKEGSTPPASASPEDEVHICNLSLGEDCNVEKSVEEKENIATGYSESVKNGPGRPDPSDSSCTGLVRPQQKPKKSEKEEKPTRTLVMTSMPSEKQTLIIQVVSTLKGFSFAPEVCETTTHVLVGKSARTLNVLMGIARGCWILSYEWVLLSLELGHWISEEPFELSETFPAAPICRLERHLSTQQYQGTLFANQPKMFIAPASSPPRAKLCELVLLCGGQVSPAPQLASLIIGPYKGKKKARIQYLSEKWVLDSITQHKICDFNNYQLLQ
